The record followed here is patent US4851426A, “Ethoxycarbonyloxy ethyl esters of non-steroidal anti-inflammatory carboxylic acids and pharmaceutical compositions thereof” (Teva Pharmaceutical Industries, Ltd., priority 1982, dated 1989).

The series can be described thus: Ulcerogenicity. The following applies: rat, in vivo, dose causing UI50, female rats, oral, read-out: UD50. As for the experimental part:
Methods: Six groups of 10 female Charles River rats weighing 170-230 g were used for each drug. […] Drugs were freshly suspended in water with 1% carboxymethyl cellulose and administered by stomach tube. Rats treated were sacrificed 5 hours after oral gavage. Ulcers were evaluated under a magnifying lens, after the stomach had been dissected out, opened along the lesser curvature and rinsed.
Ulcer index (UI) for each group was calculated as the mean sum of the lengths of the individual lesions in each rat.
Apparent maximal ulcerogenicity was calculated from regression analysis of the ascending parts of each dose-response curve.

On to `COc1ccc2cc([C@H](C)C(=O)O)ccc2c1` [Naproxen, reference compound], for which the TD50 at 5 h is 170 µmol/kg.
